The whole screen tested about 400,000 compounds, of which about 5,500 (1.4%) were called active. These results got no clear call from the source, so the numbers are uncertain. Calls come from the whole dose curve; as a rule, active = well fitted cell-killing curve with a large enough effect; inconclusive = small, poorly fitted or top-dose-only effect, or effect the other way; inactive = flat fitted curve, though single readings scatter. Some tests of the compounds listed are not included; inactive here does not mean inactive elsewhere.
Assay: qHTS assay for MDR1-selective chemotherapeutics: Primary screen using the parental adenocarcinoma cell KB-3-1; note: nearly all actives have a fitted effect of over 60% in size
Settings: KB-3-1 viability, CellTiter-Glo ATP luminescence, 72 h
Excerpt: A prime difficulty in effectively treating cancer is the development of cellular resistance to multiple structurally unrelated anticancer drugs, a phenomenon known as multidrug resistance (MDR). […] Numerous strategies to overcome P-gp-mediated MDR have been explored, including the design of drugs that evade recognition and efflux, and development of inhibitors to block efflux and restore drug accumulation. […] An alternative approach is to exploit resistance by identifying drugs that target MDR cells over the non-resistant parental cells from which they were selected. […]
Our goal is to identify compounds that selectively kill P-gp-expressing MDR cells. […] This assay will be utilized to conduct a quantitative high-throughput screen (qHTS) in collaboration with the NIH Chemical Genomics Center to identify selective agents, and probe hits arising from the screen will be validated using secondary assays and characterized through a well-established follow-up research program. […]
Briefly, 5 microL of media containing either KB-3-1 cells (columns 1-2, 4-48) are dispensed into Greiner white, treated solid-bottom 1536-well assay plates (media-only control is added to column 3). […] CellTiter-Glo (2.5 µL/well) is then added, and the plates are read in a ViewLux reader (Perkin-Elmer, clear luminescence filter, 1 second exposure, 1x binning) following a 10 minute incubation. […]

Row | Compound | outcome
1 | O=C(CBr)c1ccc(Cl)cc1 | inconclusive

Reference: PubChem BioAssay AID1347075 (National Center for Advancing Translational Sciences (NCATS), 2019)
